Results: US9278922B2 (ABBVIE INC., priority 2009, dated 2016)
Some of these results come from one statement about several compounds together. At least one compound was matched to its structure with a doubt left.

These molecules were tested on HCV 1b-Con-1 replicon (assay: HCV 1b-Con-1 replicon assay (luciferase reporter gene, HuH-7 cells)). Conditions: luciferase reporter gene activity in the replicon, in the presence of 5% FBS.
Format: cell-based, Hepatitis C virus (HCV) genotype 1b-Con1
For `O=C(Nc1ccc(CN(Cc2ccc(NC(=O)[C@@H]3CCCN3C(=O)C(c3ccccc3)N3CC[C@@H](F)C3)cc2)c2ccc(F)cc2)cc1)[C@@H]1CCCN1C(=O)C(c1ccccc1)N1CC[C@@H](F)C1` (single isomer, unassigned) [Example 117], the EC50 was < 1 nM.
With `O=C(Nc1ccc(CN(Cc2ccc(NC(=O)[C@@H]3CCCN3C(=O)C(c3ccccc3)N3CCCC3=O)cc2)c2ccc(F)cc2)cc1)[C@@H]1CCCN1C(=O)C(c1ccccc1)N1CCCC1=O` (single isomer, unassigned) [Example 128] the EC50 was < 1 nM.
With `O=C(Nc1ccc(CN(Cc2ccc(NC(=O)[C@@H]3CCCN3C(=O)C(c3ccccc3)N3CCC(F)(F)CC3)cc2)c2ccc(F)cc2)cc1)[C@@H]1CCCN1C(=O)C(c1ccccc1)N1CCC(F)(F)CC1` (single isomer, unassigned) [Example 138] the EC50 was < 1 nM.
With `COC(=O)NC(C(=O)N1CCCC1C(=O)Nc1ccc(CN(Cc2ccc(NC(=O)C3CCCN3C(=O)C(NC(=O)OC)C(C)(C)C)cc2)c2ccccc2)cc1)C(C)(C)C` [Example 6, Dimethyl (2S,2′S)-1,1′-((2S,2′S)-2,2′-(4,4′-(phenylazanediyl)bis(methylene)bis(4,1-phenylene)bis(azanediyl))bis(oxomethylene)bis(pyrrolidine-2,1-diyl))bis(3,3-dimethyl-1-oxobutane-2,1-diyl)dicarbamate] the EC50 was < 1 nM.
For `COC(=O)NC(C(=O)N1CCCC1c1nc2ccc(CN(Cc3ccc4nc(C5CCCN5C(=O)C(NC(=O)OC)C(C)(C)C)[nH]c4c3)c3ccccc3)cc2[nH]1)C(C)(C)C` [Example 7, Dimethyl (2S,2′S)-1,1′-((2S,2′S)-2,2′-(6,6′-(phenylazanediyl)bis(methylene)bis(1H-benzo[d]imidazole-6,2-diyl))bis(pyrrolidine-2,1-diyl))bis(3,3-dimethyl-1-oxobutane-2,1-diyl)dicarbamate], the EC50 was < 1 nM.
`CCC(C)C(NC(=O)OC)C(=O)N1CCCC1c1nc2cc(CN(Cc3ccc4nc(C5CCCN5C(=O)C(NC(=O)OC)C(C)CC)[nH]c4c3)c3ccccc3)ccc2[nH]1` [Example 22, dimethyl (2S,2′S,3S,3′S)-1,1′-((2S,2′S)-2,2′-(5,5′-(phenylazanediyl)bis(methylene)bis(1H-benzo[d]imidazole-5,2-diyl))bis(pyrrolidine-2,1-diyl))bis(3-methyl-1-oxopentane-2,1-diyl)dicarbamate] was tested, and the EC50 was < 1 nM.
With `COC(=O)NC(C(=O)N1CCCC1c1nc2cc(CN(Cc3ccc4nc(C5CCCN5C(=O)C(NC(=O)OC)c5ccccc5)[nH]c4c3)c3ccccc3)ccc2[nH]1)c1ccccc1` [Example 23, dimethyl (1R,1R)-2,2′-((2S,2′S)-2,2′-(5,5′-(phenylazanediyl)bis(methylene)bis(1H-benzo[d]imidazole-5,2-diyl))bis(pyrrolidine-2,1-diyl))bis(2-oxo-1-phenylethane-2,1-diyl)dicarbamate] the EC50 was < 1 nM.
`CN(C)[C@@H](C(=O)N1CCC[C@H]1C(=O)Nc1ccc(CN(Cc2ccc(NC(=O)[C@@H]3CCCN3C(=O)[C@@H](c3ccccc3)N(C)C)cc2)c2ccc(F)cc2)cc1)c1ccccc1` [Example 60, (2S,2′)-N,N′-{[(4-fluorophenyl)imino]bis(methanediylbenzene-4,1-diyl)}bis{1-[(2R)-2-(dimethylamino)-2-phenylacetyl]pyrrolidine-2-carboxamide}] was tested, and the EC50 was < 1 nM.
